Reference: publication PMC2897766
Results are given in words; binding and its absence hold for the method and conditions named. In cells and extracts the contact can be indirect. Some entries that bind do so weakly or less than the wild type. Sequences can lack the tags named with a protein.

Amino acid sequences for entries named in this document (tags omitted). Residues count along the entry.
UniProt P16474, residues 43-682: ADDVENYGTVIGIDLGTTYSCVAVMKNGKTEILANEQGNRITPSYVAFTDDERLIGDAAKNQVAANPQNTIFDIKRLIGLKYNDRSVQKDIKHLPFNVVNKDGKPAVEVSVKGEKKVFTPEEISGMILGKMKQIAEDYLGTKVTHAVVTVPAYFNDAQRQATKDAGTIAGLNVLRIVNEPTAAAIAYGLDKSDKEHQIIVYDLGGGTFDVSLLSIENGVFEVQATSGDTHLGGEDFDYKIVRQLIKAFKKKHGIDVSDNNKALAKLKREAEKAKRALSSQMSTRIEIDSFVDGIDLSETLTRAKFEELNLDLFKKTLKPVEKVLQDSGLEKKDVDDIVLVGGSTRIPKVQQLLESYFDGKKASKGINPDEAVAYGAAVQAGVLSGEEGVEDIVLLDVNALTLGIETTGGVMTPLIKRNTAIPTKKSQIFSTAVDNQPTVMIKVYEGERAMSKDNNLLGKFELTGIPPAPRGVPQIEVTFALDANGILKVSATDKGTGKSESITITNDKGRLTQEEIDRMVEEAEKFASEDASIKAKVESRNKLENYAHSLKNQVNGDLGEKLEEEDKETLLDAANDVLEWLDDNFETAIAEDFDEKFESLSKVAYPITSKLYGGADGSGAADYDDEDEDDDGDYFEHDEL

Target: T1, Ire1, wild type, C-terminally HA-tagged (yeast) (UniProt P32361)
T1 sequence: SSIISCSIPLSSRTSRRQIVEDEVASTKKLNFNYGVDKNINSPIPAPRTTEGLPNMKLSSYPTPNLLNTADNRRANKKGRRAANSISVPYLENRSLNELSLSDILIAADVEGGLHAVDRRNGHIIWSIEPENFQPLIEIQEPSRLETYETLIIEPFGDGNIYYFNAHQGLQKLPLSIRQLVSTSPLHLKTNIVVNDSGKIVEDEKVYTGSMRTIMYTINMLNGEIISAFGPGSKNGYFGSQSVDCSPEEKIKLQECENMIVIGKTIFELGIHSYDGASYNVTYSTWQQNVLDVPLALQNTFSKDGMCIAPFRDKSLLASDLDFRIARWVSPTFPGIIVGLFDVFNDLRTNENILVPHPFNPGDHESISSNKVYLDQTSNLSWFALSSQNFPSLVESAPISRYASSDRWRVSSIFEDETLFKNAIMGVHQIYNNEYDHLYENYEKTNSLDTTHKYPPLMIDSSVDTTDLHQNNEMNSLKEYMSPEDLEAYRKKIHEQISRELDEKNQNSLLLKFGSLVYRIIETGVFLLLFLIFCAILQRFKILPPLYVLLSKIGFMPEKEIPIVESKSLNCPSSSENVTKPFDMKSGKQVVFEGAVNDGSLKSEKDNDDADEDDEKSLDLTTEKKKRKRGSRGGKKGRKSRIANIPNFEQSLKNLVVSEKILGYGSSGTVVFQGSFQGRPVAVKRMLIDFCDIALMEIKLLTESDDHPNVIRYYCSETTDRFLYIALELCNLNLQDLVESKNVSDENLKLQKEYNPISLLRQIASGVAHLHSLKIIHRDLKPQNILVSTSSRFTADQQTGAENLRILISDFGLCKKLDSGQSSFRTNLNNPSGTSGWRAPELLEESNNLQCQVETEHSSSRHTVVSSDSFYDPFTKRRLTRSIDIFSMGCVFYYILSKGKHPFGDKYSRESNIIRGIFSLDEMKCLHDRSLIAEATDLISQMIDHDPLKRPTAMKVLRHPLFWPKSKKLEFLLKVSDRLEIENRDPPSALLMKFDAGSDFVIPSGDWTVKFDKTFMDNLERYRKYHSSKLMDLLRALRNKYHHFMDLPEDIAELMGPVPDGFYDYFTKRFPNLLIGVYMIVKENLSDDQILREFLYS
Assay: co-IP; HA-tagged Ire1 or Ire1^bipless precipitated from yeast lysate with anti-HA agarose beads, 2 h at 4°C, IP buffer (50 mM Tris-HCl pH 8.0, 150 mM NaCl, 1% Triton X-100); blot with anti-HA and anti-Kar2; cells untreated, treated with 5 mM DTT for 1 h, or sampled after DTT washout

binding: binds
Substance: BiP (Kar2 in yeast) (from UniProt P16474 43-682)
